According to PMC11585102:
These are yes or no findings as the source states them, for the method shown. Binding seen in cells or lysates may run through a third protein. Some entries that bind do so weakly or less than the wild type.

Sequences of proteins named here, by UniProt entry; tags and fusion partners are left off.
UniProt P32304: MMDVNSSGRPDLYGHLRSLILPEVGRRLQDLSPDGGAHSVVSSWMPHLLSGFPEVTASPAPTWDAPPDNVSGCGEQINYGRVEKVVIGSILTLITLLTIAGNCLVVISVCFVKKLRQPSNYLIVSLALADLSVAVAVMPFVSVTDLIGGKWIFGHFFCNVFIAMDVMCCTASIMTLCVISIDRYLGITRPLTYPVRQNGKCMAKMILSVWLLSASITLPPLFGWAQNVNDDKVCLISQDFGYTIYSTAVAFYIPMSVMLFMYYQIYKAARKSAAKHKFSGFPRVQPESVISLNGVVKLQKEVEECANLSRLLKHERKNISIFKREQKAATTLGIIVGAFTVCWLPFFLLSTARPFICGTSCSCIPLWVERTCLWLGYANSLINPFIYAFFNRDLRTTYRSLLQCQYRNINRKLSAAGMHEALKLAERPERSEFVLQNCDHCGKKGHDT

Key:
[1] = target: serotonin receptor 7 (5-HT7R), eCFP- or eYFP-tagged (UniProt P32304); assay: FRET or BRET; lux-FRET, live-cell confocal imaging (Zeiss LSM 780) of N1E-115 cells co-expressing eCFP (donor)- and eYFP (acceptor)-tagged receptors, 24 h post-transfection, tyrode buffer pH 7.4; apparent FRET efficiency EfD compared with CD86-eCFP/CD86-eYFP
[2] = target: serotonin receptor 7 (5-HT7R), eCFP- or eYFP-tagged (UniProt P32304); assay: FRET or BRET; lux-FRET on suspensions of N1E-115 cells transfected with varying donor and acceptor amounts, fluorescence spectrometer (Fluorolog-3.22), room temperature, tyrode buffer pH 7.4; apparent FRET efficiency against donor mole fraction fitted to a dimerization model; relative dissociation constants, monomer to dimer

binding [1]: binds
binding [2]: binds
Substance: serotonin receptor 7 (5-HT7R), eCFP- or eYFP-tagged (from UniProt P32304 1-448)
